Read-outs that look alike come from different tables or passages of the source. These are yes or no findings as the source states them, for the method shown. Some results given as binding are weak or reduced against the parent protein; the word gives no strength.

The chains behind the UniProt entries cited, without tags or fusion partners. Where a name states a change or a piece, a line headed by the entry shows the natural chain unless it says otherwise. A line that says so, or that is headed by a name, gives the form on record, which may keep a tag or linker. Residues count along the entry.
UniProt P02768, residues 25-609: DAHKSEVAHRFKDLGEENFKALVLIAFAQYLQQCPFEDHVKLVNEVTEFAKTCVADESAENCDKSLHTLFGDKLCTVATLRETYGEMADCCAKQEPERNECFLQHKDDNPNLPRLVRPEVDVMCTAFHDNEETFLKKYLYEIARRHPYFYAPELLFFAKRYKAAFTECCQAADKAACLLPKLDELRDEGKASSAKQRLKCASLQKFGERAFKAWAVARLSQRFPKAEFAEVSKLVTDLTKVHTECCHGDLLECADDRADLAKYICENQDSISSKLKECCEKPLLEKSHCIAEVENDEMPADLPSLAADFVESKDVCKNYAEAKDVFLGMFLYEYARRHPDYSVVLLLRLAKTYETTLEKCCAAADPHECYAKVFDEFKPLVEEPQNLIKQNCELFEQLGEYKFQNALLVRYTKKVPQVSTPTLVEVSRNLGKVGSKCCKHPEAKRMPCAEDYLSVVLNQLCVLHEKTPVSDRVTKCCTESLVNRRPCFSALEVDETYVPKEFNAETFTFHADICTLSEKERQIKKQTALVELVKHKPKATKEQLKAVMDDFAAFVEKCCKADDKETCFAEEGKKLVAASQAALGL
apo-transferrin (iron-unbound transferrin) (P02787, residues 20-698): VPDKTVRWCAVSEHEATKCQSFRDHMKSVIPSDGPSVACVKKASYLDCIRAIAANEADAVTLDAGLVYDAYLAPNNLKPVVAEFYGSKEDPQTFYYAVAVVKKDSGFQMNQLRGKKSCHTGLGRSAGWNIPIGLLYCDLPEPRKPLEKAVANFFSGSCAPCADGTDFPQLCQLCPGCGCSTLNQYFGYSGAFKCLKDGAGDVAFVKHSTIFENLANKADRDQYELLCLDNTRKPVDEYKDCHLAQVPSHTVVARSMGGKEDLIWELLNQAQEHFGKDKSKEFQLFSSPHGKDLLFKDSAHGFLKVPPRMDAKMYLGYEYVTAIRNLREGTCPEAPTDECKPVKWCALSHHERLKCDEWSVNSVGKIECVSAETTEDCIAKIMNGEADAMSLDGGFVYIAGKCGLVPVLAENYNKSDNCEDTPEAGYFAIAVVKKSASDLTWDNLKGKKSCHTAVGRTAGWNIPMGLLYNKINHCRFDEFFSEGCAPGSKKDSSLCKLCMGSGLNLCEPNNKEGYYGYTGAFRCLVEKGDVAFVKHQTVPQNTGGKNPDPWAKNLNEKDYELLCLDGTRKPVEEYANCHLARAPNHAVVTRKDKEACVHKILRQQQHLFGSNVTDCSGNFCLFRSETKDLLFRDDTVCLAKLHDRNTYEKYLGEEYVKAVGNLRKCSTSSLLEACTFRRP
Tf mutant (E333R and E338R) (P02787, form named): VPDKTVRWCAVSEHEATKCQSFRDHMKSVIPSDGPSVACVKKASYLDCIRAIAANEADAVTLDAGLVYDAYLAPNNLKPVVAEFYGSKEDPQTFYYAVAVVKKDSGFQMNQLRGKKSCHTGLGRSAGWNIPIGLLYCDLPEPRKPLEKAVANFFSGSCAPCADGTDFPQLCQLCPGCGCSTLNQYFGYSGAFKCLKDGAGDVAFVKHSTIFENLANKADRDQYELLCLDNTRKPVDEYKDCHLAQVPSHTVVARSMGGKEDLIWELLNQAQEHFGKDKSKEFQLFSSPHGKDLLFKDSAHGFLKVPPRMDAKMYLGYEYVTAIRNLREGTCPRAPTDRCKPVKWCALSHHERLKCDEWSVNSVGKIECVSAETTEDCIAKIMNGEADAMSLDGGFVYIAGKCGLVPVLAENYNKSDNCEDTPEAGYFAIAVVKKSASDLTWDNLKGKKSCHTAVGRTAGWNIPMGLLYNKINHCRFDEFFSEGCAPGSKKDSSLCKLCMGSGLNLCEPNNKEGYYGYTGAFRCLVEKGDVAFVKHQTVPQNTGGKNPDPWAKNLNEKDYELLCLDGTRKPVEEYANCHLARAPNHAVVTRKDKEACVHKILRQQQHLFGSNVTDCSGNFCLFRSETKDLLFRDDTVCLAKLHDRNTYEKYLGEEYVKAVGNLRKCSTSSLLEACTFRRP
UniProt P01008, residues 33-464: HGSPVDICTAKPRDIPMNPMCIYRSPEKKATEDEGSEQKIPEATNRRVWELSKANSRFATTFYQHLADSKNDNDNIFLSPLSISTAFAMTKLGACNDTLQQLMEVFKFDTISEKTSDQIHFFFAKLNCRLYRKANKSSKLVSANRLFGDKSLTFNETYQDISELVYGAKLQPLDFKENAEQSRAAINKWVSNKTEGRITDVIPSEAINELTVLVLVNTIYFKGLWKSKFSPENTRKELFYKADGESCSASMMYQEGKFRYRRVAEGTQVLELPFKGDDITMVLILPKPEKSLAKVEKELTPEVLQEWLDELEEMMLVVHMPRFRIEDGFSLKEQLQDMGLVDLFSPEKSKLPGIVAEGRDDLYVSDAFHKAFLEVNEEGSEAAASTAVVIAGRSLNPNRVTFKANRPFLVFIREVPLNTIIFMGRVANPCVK

Holding throughout (experiment): SPR
On the technique in general: In SPR one partner is held on a chip, and binding of the other changes the refractive index at the surface.

Test [1] concerns the target human serum albumin (human) (UniProt P02768).
The target of test [2] is Tf mutant (E333R and E338R) (human) (UniProt P02787).
In test [3] the target is human serum albumin (human) (UniProt P02768). The source holds these as a separate data set.
Test [4] deals with apo-transferrin (iron-unbound transferrin) (human) (UniProt P02787).

As to “antithrombin III (from UniProt P01008 33-464)”, the binding entry in test [1] is listed as “no binding”.

B1: human α-FXIIa (enzyme)
chain 1: IPPWEAPKEHKYKAEEHTVVLTVTGEPCHFPFQYHRQLYHKCTHKGRPGPQPWCATTPNFDQDQRWGYCLEPKKVKDHCSKHSPCQKGGTCVNMPSGPHCLCPQHLTGNHCQKEKCFEPQLLRFFHKNEIWYRTEQAAVARCQCKGPDAHCQRLASQACRTNPCLHGGRCLEVEGHRLCHCPVGYTGAFCDVDTKASCYDGRGLSYRGLARTTLSGAPCQPWASEATYRNVTAEQARNWGLGGHAFCRNPDNDIRPWCFVLNRDRLSWEYCDLAQCQTPTQAAPPTPVSPRLHVPLMPAQPAPPKPQPTTRTPPQSQTPGALPAKREQPPSLTRNGPLSCGQRLRKSLSSMTR
chain 2: VVGGLVALRGAHPYIAALYWGHSFCAGSLIAPCWVLTAAHCLQDRPAPEDLTVVLGQERRNHSCEPCQTLAVRSYRLHEAFSPVSYQHDLALLRLQEDADGSCALLSPYVQPVCLPSGAARPSETTLCQVAGWGHQFEGAEEYASFLQEAQVPFLSLERCSAPDVHGSSILPGMLCAGFLEGGTDACQGDSGGPLVCEDQAAERRLTLQGIISWGSGCGDRNKPGVYTDVAYYLAWIREHTVS
For the molecule B1, the values for the binding result in test [2] and in test [3] were “binds weakly” and “no binding”, respectively.
Consider RKKGIRRYTERHSNIE [TH16-scr (scrambled control of TH16)], for which the binding entry in test [4] is listed as “no binding”.
The same measure, in the same setting: next, SCPTHYSRQRCRNAVLER [FX18-scr (scrambled control of FX18)]: “no binding”.

The record behind these values is article doi:10.1101/646075 (bioRxiv, 2019).
